No constants are given. Whether binding was seen depends on the method and setting. Binding seen in cells or lysates may run through a third protein. Here binding means that the protein was enriched with, or labelled near, the bait; the list need not be complete.
Columns and labels:
Assay in all cases: proximity labelling
[1] = biological target: ultraID-RAB5A (UniProt P20339)
[2] = biological target: miniTurbo-RAB5A (UniProt P20339)
[3] = biological target: LMNA N-terminally fused to TurboID (UniProt P02545)
[4] = biological target: LMNA N-terminally fused to miniTurbo (UniProt P02545)
[5] = biological target: LMNA N-terminally fused to ultraID (UniProt P02545)
[6] = biological target: LMNA N-terminally fused to BASU (UniProt P02545)

Amino acid sequences for entries named in this document (tags omitted).
UniProt P20339: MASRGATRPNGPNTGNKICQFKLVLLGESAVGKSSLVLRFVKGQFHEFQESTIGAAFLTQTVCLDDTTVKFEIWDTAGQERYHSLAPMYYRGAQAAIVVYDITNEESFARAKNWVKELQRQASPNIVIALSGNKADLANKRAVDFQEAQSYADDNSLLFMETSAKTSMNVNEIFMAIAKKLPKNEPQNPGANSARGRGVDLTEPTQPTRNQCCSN
UniProt P02545: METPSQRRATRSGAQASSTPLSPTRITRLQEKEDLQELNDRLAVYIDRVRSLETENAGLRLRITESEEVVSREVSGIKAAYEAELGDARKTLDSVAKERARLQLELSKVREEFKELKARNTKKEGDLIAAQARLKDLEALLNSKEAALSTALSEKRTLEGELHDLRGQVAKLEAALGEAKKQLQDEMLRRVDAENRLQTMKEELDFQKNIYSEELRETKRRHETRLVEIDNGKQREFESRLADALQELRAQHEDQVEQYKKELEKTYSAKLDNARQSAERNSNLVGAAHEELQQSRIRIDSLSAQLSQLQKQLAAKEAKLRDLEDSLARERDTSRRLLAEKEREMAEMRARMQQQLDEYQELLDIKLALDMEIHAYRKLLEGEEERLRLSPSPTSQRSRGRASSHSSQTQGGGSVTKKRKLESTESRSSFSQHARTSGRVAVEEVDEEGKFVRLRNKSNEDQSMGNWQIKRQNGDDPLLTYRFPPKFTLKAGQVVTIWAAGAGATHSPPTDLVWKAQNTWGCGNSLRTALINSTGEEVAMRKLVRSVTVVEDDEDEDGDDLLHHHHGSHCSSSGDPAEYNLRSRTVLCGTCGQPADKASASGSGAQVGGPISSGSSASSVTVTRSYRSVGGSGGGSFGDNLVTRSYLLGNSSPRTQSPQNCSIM

| Binder | binding [1] | binding [2] | binding [3] | binding [4] | binding [5] | binding [6] |
| --- | --- | --- | --- | --- | --- | --- |
| LEMD3 (protein, UniProt Q9Y2U8 1-911) MAAAAASAPQQLSDEELFSQLRRYGLSPGPVTESTRPVYLKKLKKLREEEQQQHRSGGRGNKTRNSNNNNTAAATVAAAGPAAAAAAGMGVRPVSGDLSYLRTPGGLCRISASGPESLLGGPGGASAAPAAGSKVLLGFSSDESDVEASPRDQAGGGGRKDRASLQYRGLKAPPAPLAASEVTNSNSAERRKPHSWWGARRPAGPELQTPPGKDGAVEDEEGEGEDGEERDPETEEPLWASRTVNGSRLVPYSCRENYSDSEEEDDDDVASSRQVLKDDSLSRHRPRRTHSKPLPPLTAKSAGGRLETSVQGGGGLAMNDRAAAAGSLDRSRNLEEAAAAEQGGGCDQVDSSPVPRYRVNAKKLTPLLPPPLTDMDSTLDSSTGSLLKTNNHIGGGAFSVDSPRIYSNSLPPSAAVAASSSLRINHANHTGSNHTYLKNTYNKPKLSEPEEELLQQFKREEVSPTGSFSAHYLSMFLLTAACLFFLILGLTYLGMRGTGVSEDGELSIENPFGETFGKIQESEKTLMMNTLYKLHDRLAQLAGDHECGSSSQRTLSVQEAAAYLKDLGPEYEGIFNTSLQWILENGKDVGIRCVGFGPEEELTNITDVQFLQSTRPLMSFWCRFRRAFVTVTHRLLLLCLGVVMVCVVLRYMKYRWTKEEEETRQMYDMVVKIIDVLRSHNEACQENKDLQPYMPIPHVRDSLIQPHDRKKMKKVWDRAVDFLAANESRVRTETRRIGGADFLVWRWIQPSASCDKILVIPSKVWQGQAFHLDRRNSPPNSLTPCLKIRNMFDPVMEIGDQWHLAIQEAILEKCSDNDGIVHIAVDKNSREGCVYVKCLSPEYAGKAFKALHGSWFDGKLVTVKYLRLDRYHHRFPQALTSNTPLKPSNKHMNSMSHLRLRTGLTNSQGSS |  |  | binds | binds | binds | binds |
| APPL1 (protein, UniProt Q9UKG1 1-709) MPGIDKLPIEETLEDSPQTRSLLGVFEEDATAISNYMNQLYQAMHRIYDAQNELSAATHLTSKLLKEYEKQRFPLGGDDEVMSSTLQQFSKVIDELSSCHAVLSTQLADAMMFPITQFKERDLKEILTLKEVFQIASNDHDAAINRYSRLSKKRENDKVKYEVTEDVYTSRKKQHQTMMHYFCALNTLQYKKKIALLEPLLGYMQAQISFFKMGSENLNEQLEEFLANIGTSVQNVRREMDSDIETMQQTIEDLEVASDPLYVPDPDPTKFPVNRNLTRKAGYLNARNKTGLVSSTWDRQFYFTQGGNLMSQARGDVAGGLAMDIDNCSVMAVDCEDRRYCFQITSFDGKKSSILQAESKKDHEEWICTINNISKQIYLSENPEETAARVNQSALEAVTPSPSFQQRHESLRPAAGQSRPPTARTSSSGSLGSESTNLAALSLDSLVAPDTPIQFDIISPVCEDQPGQAKAFGQGGRRTNPFGESGGSTKSETEDSILHQLFIVRFLGSMEVKSDDHPDVVYETMRQILAARAIHNIFRMTESHLLVTCDCLKLIDPQTQVTRLTFPLPCVVLYATHQENKRLFGFVLRTSSGRSESNLSSVCYIFESNNEGEKICDSVGLAKQIALHAELDRRASEKQKEIERVKEKQQKELNKQKQIEKDLEEQSRLIAASSRPNQASSEGQFVVLSSSQSEESDLGEGGKKRESEA | binds | binds |  |  |  |  |
| SYNE3 (Nesprin-3) (protein, UniProt Q6ZMZ3 1-975) MTQQPQDDFDRSVEDAQAWMKAVQDQLQVNDNTQGPRAALEARLWETEKICQLEPEGRVRVDLVLRMAEALLACCPGDQKPGILARLKDIKAQWEETVTYMTHCHSRIEWVWLHWSEYLLARDEFYRWFQKMMVTLEPHIELQLGLKEKQWQLSHAQVLLHNVDNQAVLLDRLLEEAASLFNRIGDPSVDEDAQKRMKAEYDAVKAKAQKRVDLLEQVAREHEEYQAGVDEFQLWLKAVVEKVNGCLGRNCKLPITQRLSTLQDIAKDFPRGEESLETLEEQSAGVIRNTSPLGAEKITGELEEMRKVLEKLRALWEEEEERLRGLLRSRGAWEQQIKQLEAELSEFRMVLQRLAQEGLQPAAKAGTEDELVAHWRRYSATRAALASEEPRVDRLQAQLKELIVFPHNLKPLSDSVIATIQEYQSLKVKSARLRNAAAVELWQHFQRPLQDLQLWKALAQRLLEVTASLPDLPSLHTFLPQIEAALMESSRLKELLTMLQLKKDLLIGIFGQERATALLEQVAGSMRDRDLLHNSLLQRKSKLQSLLAQHKDFGAAFEPLQRKLLDLQVRVQAEKGLQRDLPGKQAQLSRLQGLQEEGLDLGAQMEAARPLVQENPNHQHKMDQLSSDFQALQRSLEDLVDRCRQSVQEHCTFSHQLLELRQWIVVTTQKLEAHRGEAGPGDAESQEAEFERLVAEFPEKEAQLSLVEAQGWLVMEKSSPEGAAVVQEELRELAESWRALRLLEESLLSLIRNWHLQRMEVDSGKKMVFTNNIPKSGFLINPMDPIPRHRRRANLLQEEEGSHEDFSQLLRNFGQWLQVENSKLVRIIAMRTSTAEDLRTRKSKLQELEARVPEGQHLFENLLRLGPARGTSDELEDLRYQWMLYKSKLKDSGHLLTQSSPGEPTGFQKTRRWRGLGSLFRRACCVALPLQLLLLLFLLLLFLLPIREEDRSCTLANNFARSFTLMLRYNGPPPT |  |  | binds | binds | binds | binds |

The next lines start with the values.

| binding [1] | binding [2] | binding [3] | binding [4] | binding [5] | binding [6] | Binder |
| --- | --- | --- | --- | --- | --- | --- |
| binds | binds |  |  |  |  | RAB13 (protein, UniProt P51153 1-203) MAKAYDHLFKLLLIGDSGVGKTCLIIRFAEDNFNNTYISTIGIDFKIRTVDIEGKKIKLQVWDTAGQERFKTITTAYYRGAMGIILVYDITDEKSFENIQNWMKSIKENASAGVERLLLGNKCDMEAKRKVQKEQADKLAREHGIRFFETSAKSSMNVDEAFSSLARDILLKSGGRRSGNGNKPPSTDLKTCDKKNTNKCSLG |
| binds | binds |  |  |  |  | VPS8 (protein, UniProt Q8N3P4 1-1428) MENEPDHENVEQSLCAKTSEEELNKSFNLEASLSKFSYIDMDKELEFKNDLIDDKEFDIPQVDTPPTLESILNETDDEDESFILEDPTLLNIDTIDSHSYDTSSVASSDSGDRTNLKRKKKLPDSFSLHGSVMRHSLLKGISAQIVSAADKVDAGLPTAIAVSSLIAVGTSHGLALIFGKDQNQALRLCLGSTSVGGQYGAISALSINNDCSRLLCGFAKGQITMWDLASGKLLRSITDAHPPGTAILHIKFTDDPTLAICNDSGGSVFELTFKRVMGVRTCESRCLFSGSKGEVCCIEPLHSKPELKDHPITQFSLLAMASLTKILVIGLKPSLKVWMTFPYGRMDPSSVPLLAWHFVAVQNYVNPMLAFCRGDVVHFLLVKRDESGAIHVTKQKHLHLYYDLINFTWINSRTVVLLDSVEKLHVIDRQTQEELETVEISEVQLVYNSSHFKSLATGGNVSQALALVGEKACYQSISSYGGQIFYLGTKSVYVMMLRSWRERVDHLLKQDCLTEALALAWSFHEGKAKAVVGLSGDASKRKAIVADRMVEILFHYADRALKKCPDQGKIQVMEQHFQDMVPVIVDYCLLLQRKDLLFSQMYDKLSENSVAKGVFLECLEPYILSDKLVGITPQVMKDLIVHFQDKKLMENVEALIVHMDITSLDIQQVVLMCWENRLYDAMIYVYNRGMNEFISPMEKLFRVIAPPLNAGKTLTDEQVVMGNKLLVYISCCLAGRAYPLGDIPEDLVPLVKNQVFEFLIRLHSAEASPEEEIYPYIRTLLHFDTREFLNVLALTFEDFKNDKQAVEYQQRIVDILLKVMVENSDFTPSQVGCLFTFLARQLAKPDNTLFVNRTLFDQVLEFLCSPDDDSRHSERQQVLLELLQAGGIVQFEESRLIRMAEKAEFYQICEFMYEREHQYDKIIDCYLRDPLREEEVFNYIHNILSIPGHSAEEKQSVWQKAMDHIEELVSLKPCKAAELVATHFSGHIETVIKKLQNQVLLFKFLRSLLDPREGIHVNQELLQISPCITEQFIELLCQFNPTQVIETLQVLECYRLEETIQITQKYQLHEVTAYLLEKKGDIHGAFLIMLERLQSKLQEVTHQGENTKEDPSLKDVEDTMVETIALCQRNSHNLNQQQREALWFPLLEAMMAPQKLSSSAIPHLHSEALKSLTMQVLNSMAAFIALPSILQRILQDPVYGKGKLGEIQGLILGMLDTFNYEQTLLETTTSLLNQDLHWSLCNLRASVTRGLNPKQDYCSICLQQYKRRQEMADEIIVFSCGHLYHSFCLQNKECTVEFEGQTRWTCYKCSSSNKVGKLSENSSEIKKGRITPSQVKMSPSYHQSKGDPTAKKGTSEPVLDPQQIQAFDQLCRLYRGSSRLALLTELSQNRSSESYRPFSGSQSAPAFNSIFQNENFQLQLIPPPVTED |

Reference: article doi:10.1101/2025.08.29.668156
